These are yes or no findings as the source states them, for the method shown. In cells and extracts the contact can be indirect. Some results given as binding are weak or reduced against the parent protein; the word gives no strength.

By UniProt entry, the sequences of proteins in these tests, tags left out.
UniProt P63010: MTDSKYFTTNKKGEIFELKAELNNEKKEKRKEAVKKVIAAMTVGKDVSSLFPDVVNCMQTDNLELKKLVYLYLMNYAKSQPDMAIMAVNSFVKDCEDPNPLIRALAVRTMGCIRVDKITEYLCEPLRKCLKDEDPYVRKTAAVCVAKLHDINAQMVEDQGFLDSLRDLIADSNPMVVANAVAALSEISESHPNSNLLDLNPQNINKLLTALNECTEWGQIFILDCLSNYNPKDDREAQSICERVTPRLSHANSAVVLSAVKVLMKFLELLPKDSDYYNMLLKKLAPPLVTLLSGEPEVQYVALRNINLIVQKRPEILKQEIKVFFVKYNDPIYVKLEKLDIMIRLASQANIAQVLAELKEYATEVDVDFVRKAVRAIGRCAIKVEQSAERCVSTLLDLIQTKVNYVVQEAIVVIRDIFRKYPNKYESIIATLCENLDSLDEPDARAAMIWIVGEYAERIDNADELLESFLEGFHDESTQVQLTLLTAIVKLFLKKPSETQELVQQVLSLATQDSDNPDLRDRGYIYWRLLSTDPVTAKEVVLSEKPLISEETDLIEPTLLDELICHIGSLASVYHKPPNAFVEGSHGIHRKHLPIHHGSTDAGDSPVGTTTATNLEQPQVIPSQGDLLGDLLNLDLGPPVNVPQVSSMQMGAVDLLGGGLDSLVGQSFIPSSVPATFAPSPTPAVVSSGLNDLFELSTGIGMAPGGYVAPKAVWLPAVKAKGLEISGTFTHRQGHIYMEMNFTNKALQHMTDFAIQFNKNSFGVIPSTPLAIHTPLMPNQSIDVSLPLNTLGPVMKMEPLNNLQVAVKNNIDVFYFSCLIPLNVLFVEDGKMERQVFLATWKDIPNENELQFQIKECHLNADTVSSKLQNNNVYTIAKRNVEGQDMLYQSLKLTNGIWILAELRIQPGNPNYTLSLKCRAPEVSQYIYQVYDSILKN
UniProt P25098: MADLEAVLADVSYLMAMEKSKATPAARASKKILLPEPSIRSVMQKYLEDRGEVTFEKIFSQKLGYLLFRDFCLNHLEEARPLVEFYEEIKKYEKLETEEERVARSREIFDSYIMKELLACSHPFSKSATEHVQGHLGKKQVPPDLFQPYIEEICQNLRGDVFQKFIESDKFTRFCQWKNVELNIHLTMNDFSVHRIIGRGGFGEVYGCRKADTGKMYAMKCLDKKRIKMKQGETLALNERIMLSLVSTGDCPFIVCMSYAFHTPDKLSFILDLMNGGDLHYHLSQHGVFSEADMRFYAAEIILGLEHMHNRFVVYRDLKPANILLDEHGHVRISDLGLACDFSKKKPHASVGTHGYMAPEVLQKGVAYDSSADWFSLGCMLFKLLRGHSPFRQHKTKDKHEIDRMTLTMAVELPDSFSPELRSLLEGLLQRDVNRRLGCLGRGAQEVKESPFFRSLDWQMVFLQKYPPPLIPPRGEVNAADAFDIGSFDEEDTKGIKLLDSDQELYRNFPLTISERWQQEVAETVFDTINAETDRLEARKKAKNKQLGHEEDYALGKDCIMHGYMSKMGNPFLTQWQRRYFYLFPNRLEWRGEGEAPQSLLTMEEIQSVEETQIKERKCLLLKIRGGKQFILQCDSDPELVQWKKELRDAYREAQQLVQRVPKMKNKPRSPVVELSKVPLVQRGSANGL
UniProt Q00987: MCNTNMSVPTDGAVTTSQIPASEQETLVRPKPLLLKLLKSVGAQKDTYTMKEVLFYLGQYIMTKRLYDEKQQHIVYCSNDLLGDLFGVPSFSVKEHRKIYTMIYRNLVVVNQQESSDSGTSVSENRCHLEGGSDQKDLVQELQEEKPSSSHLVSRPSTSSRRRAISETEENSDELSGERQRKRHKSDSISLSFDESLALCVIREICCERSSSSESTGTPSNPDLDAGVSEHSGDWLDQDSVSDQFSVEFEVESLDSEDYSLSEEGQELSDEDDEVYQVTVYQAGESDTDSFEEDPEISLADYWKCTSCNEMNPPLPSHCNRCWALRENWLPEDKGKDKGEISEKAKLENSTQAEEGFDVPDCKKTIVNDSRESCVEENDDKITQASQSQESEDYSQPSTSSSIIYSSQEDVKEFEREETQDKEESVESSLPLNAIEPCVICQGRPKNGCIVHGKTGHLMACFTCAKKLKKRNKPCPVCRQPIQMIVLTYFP
UniProt Q03135: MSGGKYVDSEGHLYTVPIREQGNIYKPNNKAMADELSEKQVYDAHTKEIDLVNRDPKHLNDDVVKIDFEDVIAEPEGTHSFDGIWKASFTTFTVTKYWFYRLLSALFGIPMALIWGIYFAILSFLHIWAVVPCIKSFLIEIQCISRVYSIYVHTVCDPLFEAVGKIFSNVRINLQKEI
UniProt Q00610: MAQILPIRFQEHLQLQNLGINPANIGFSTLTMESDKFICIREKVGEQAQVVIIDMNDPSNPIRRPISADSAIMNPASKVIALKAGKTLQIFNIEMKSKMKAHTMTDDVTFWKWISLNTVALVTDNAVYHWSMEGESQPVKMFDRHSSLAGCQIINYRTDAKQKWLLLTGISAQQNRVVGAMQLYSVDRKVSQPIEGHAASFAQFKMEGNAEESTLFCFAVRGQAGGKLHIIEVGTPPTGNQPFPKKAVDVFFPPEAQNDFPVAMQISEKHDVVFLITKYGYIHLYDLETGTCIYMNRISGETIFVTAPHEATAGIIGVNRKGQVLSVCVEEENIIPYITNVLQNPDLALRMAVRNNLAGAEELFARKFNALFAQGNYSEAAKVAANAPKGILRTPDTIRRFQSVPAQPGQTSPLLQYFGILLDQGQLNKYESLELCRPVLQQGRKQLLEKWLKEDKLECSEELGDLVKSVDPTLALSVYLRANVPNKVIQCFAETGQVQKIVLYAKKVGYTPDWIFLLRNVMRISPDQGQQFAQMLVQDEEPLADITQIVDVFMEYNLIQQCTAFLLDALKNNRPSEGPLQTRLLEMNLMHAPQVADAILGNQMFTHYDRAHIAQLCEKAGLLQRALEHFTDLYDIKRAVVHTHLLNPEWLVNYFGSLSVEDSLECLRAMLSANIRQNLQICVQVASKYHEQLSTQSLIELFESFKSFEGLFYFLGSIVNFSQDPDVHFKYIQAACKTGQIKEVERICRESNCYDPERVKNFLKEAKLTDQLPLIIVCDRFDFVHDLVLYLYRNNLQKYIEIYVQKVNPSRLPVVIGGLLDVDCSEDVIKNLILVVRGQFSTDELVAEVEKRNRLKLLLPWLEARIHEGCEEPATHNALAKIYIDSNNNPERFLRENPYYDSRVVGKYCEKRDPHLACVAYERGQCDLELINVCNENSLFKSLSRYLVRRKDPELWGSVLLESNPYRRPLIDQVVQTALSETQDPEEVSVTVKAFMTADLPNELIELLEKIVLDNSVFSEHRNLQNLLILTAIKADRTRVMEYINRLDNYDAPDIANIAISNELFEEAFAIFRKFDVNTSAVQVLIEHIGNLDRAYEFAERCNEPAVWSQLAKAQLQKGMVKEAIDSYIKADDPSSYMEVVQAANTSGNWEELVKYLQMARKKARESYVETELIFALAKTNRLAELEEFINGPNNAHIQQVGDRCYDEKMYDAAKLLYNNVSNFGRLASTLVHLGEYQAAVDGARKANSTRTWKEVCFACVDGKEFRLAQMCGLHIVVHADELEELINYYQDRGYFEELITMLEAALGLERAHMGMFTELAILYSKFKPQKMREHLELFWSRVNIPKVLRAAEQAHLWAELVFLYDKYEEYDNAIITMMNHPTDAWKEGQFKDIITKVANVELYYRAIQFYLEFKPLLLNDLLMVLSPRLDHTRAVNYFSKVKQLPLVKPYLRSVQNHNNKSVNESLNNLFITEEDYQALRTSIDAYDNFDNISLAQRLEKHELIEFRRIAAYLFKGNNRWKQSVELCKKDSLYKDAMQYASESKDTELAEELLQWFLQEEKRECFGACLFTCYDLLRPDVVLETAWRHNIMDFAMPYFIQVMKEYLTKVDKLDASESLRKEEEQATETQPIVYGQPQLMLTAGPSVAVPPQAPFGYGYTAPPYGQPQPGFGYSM

Assay [1] addresses FLAG-tagged β2 adaptin (β2 subunit of adaptor protein complex 2) (UniProt P63010). Put plainly: co-IP; HEK-293 cells transfected with D2R and the FLAG-tagged bait, treated with vehicle or 10 μM DA (2 min; 2 and 5 min in Figure 8B); RIPA lysates, agarose beads with antibodies against FLAG 2–3 h at 4 °C; immunoblot of the co-precipitate. (In western blotting, separated proteins are transferred to a membrane and probed.)

In assay [2] the target is FLAG-arrestin3, wild type (UniProt P32121). As to the kind of experiment: co-IP; Con-KD and GRK2-KD HEK-293 cells transfected with D2R, HA-Ub, FLAG-arrestin3 and a mock vector, WT-GRK2 or 4KR-GRK2; 10 μM DA 2 min; how Mdm2 was detected is not told in the legend.
In the next assay the target is FLAG-GRK2, wild type (UniProt P25098). As to the kind of experiment: co-IP; HEK-293 cells transfected with D2R and the FLAG-tagged bait, treated with vehicle or 10 μM DA (2 min; 2 and 5 min in Figure 8B); RIPA lysates, agarose beads with antibodies against FLAG 2–3 h at 4 °C; immunoblot of the co-precipitate.
The target in assay [3] is FLAG-arrestin3, wild type (UniProt P32121). The description is as above.

As to “GFP-tagged K11/12R-arrestin3 (from UniProt P32121 1-409)”, the binding entry in assay [1] was “binds”.

In the case of “GFP-tagged WT-arrestin3 (from UniProt P32121 1-409)”, the binding entry in assay [1] is on record as “binds”.

As to “GRK2 (G protein-coupled receptor kinase 2), wild type, untagged (from UniProt P25098 1-689) (enzyme)”, the binding result in assay [1] is “binds”.

For the substance “Mdm2 (as found with FLAG-arrestin3, Figure 3D) (from UniProt Q00987 1-491) (enzyme)”, the binding result in assay [2] was “binds”.

Take “caveolin1 (Cav1), endogenous (from UniProt Q03135 1-178)”: the binding entry was “binds” in the assay with FLAG-GRK2, wild type and “binds” in assay [3].

As for “clathrin heavy chain (CHC), endogenous (from UniProt Q00610 1-1675)”, the binding entry in the assay with FLAG-GRK2, wild type is recorded as “binds”; in assay [3], “binds”.
